# Results of single-concentration screens

Sequences of proteins named here, by UniProt entry; tags and fusion partners are left off. Residues count along the entry.
UniProt I6X8D2, whole entry: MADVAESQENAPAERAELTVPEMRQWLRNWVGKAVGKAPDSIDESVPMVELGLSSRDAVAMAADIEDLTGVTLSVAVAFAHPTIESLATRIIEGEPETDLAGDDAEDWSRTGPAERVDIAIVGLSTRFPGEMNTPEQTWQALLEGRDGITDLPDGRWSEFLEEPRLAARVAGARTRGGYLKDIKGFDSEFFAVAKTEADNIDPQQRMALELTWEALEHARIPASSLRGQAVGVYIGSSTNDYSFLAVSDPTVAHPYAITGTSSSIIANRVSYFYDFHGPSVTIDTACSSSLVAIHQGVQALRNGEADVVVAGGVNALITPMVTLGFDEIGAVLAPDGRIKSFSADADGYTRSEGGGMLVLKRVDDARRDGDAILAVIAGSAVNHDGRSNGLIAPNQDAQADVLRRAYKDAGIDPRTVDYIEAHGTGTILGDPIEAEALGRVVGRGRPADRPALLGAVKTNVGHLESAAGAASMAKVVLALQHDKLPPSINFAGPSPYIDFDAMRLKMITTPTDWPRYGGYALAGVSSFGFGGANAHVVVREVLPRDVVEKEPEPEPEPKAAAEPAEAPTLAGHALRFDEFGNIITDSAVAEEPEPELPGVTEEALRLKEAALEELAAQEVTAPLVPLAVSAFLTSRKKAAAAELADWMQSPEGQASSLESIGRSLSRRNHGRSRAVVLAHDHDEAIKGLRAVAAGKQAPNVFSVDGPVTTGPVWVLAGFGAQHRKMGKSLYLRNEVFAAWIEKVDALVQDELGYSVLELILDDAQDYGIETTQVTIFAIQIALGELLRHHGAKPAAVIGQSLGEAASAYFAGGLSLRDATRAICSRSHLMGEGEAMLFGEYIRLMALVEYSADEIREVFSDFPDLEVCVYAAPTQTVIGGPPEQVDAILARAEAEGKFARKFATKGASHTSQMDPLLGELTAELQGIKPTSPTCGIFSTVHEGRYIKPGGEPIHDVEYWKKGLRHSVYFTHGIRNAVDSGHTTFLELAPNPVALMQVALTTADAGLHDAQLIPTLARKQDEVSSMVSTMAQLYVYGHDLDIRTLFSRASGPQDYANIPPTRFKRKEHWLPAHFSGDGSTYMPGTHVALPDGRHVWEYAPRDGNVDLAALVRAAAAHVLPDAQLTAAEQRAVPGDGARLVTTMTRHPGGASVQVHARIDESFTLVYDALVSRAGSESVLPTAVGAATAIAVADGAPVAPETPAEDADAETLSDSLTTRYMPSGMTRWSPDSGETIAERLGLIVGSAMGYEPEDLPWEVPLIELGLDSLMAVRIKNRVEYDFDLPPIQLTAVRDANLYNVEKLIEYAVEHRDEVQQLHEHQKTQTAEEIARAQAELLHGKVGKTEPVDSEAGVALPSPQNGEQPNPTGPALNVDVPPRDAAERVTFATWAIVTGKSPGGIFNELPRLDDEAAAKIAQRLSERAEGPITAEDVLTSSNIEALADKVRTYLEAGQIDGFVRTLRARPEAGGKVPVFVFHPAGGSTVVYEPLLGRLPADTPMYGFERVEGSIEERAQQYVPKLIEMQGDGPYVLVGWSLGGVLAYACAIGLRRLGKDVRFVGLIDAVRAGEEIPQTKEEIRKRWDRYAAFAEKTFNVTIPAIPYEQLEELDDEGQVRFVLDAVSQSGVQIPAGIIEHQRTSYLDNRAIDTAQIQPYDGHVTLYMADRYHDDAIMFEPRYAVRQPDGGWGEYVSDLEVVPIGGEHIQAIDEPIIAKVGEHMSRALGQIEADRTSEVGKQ
UniProt Q8IDJ8, 1-583: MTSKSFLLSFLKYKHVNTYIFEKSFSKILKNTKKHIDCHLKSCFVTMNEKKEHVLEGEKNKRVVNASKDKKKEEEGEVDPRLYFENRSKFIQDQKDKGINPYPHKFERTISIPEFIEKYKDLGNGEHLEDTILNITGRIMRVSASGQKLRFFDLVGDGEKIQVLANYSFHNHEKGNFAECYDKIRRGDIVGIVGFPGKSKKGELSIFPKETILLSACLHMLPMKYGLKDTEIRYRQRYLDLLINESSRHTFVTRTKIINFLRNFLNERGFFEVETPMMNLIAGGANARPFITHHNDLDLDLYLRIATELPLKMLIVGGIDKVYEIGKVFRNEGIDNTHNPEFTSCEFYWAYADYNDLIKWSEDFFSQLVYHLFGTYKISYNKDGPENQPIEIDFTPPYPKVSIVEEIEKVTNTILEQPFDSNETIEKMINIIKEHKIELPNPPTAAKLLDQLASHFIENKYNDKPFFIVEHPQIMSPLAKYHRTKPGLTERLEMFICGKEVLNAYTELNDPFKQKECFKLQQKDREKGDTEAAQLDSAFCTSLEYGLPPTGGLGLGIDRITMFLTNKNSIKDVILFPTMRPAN
UniProt A4I591, 1-473: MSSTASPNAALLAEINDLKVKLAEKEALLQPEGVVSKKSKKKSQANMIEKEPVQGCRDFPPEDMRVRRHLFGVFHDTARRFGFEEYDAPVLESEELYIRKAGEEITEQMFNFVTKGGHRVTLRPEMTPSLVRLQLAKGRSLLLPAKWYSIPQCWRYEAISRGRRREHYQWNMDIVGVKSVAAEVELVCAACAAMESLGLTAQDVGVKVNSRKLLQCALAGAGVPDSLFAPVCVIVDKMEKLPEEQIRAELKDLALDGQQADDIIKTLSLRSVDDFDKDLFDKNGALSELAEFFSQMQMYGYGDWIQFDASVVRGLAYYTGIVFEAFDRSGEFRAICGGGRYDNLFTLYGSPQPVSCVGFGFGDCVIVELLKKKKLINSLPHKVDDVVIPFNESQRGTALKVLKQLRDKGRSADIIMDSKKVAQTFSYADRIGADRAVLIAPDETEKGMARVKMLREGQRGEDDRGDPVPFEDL
UniProt Q4DA54, 1-478: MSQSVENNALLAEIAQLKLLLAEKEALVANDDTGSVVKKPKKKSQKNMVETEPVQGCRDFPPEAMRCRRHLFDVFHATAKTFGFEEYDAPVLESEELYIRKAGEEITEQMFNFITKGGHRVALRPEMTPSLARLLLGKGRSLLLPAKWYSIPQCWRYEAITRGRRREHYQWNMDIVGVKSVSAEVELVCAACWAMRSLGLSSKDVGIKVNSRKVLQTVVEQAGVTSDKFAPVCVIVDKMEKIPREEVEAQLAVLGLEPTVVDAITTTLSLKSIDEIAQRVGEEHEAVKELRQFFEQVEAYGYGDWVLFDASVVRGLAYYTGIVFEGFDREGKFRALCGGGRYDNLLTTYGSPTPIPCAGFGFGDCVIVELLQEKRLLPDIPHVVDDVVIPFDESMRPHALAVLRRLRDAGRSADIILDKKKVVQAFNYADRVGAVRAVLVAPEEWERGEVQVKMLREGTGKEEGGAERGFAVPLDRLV

Pks13 thioesterase: 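Enzyme assay of the thioesterase domain of polyketide synthase 13; the read-out is not stated. Target: Polyketide synthase Pks13, Mycobacterium tuberculosis (UniProt I6X8D2). Compounds at 30 µM. The record gives no direction; the compounds picked for IC50 retests had high values, so higher reads as stronger inhibition. About 67,000 compounds were tested under these conditions; 0.46% (about 300) showed 50% or more at least once.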
PfKRS1: 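Lysine-tRNA ligase, Plasmodium falciparum 3D7 (UniProt Q8IDJ8). Enzyme assay of the cytosolic lysyl-tRNA synthetase in 384-well plates, read by luminescence. Compounds at 30 µM. Higher reads as stronger inhibition, judged from the few compounds that gave an IC50. Size under these conditions: about 69,000 compounds, about 49 of them at 50% or above in at least one test.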
LiHisRS: 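Enzyme assay of histidyl-tRNA synthetase; the read-out is not stated. Target: Histidine-tRNA ligase, Leishmania infantum (UniProt A4I591). Tested at 30 µM. Higher reads as stronger inhibition (inferred: compounds with an IC50 in retests scored well above the rest). The assay is labelled LdHisRS but filed under L. infantum. Of about 69,000 compounds tested this way, about 410 (0.6%) reached 50% or more in at least one test.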
TcHisRS: 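Histidine-tRNA ligase, Trypanosoma cruzi CL Brener (UniProt Q4DA54). Enzyme assay of histidyl-tRNA synthetase; the read-out is not stated. Compounds at 30 µM. Higher reads as stronger inhibition (inferred: compounds with an IC50 in retests scored well above the rest). Of about 69,000 compounds tested this way, about 31 (0.045%) reached 50% or more in at least one test.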

Results are given as percent effect.
The record does not define 0% and 100%; most values in the screen are far below 50% and negative numbers occur (in some assays of this library far below -100).
Compounds were drawn at random from those tested, without regard to their results.

{"compound": "Cc1cnc(C(=O)N2CCCCC2c2nc(C)cs2)cn1", "stereo": "centres unmarked", "Pks13 thioesterase": -11.86, "PfKRS1": -0.1798, "LiHisRS": 5.769, "TcHisRS": 4}
{"compound": "COc1c(CNCc2ccc(C(=O)N(C)C)cc2)c(C)nn1C", "Pks13 thioesterase": -11.33, "PfKRS1": 3.097, "LiHisRS": 18.92, "TcHisRS": 2.632}
{"compound": "CCOc1ccc(Cl)cc1C1CCCCN1", "stereo": "centres unmarked", "Pks13 thioesterase": -6.104, "PfKRS1": 0.1338, "LiHisRS": 5.263, "TcHisRS": 3.659}
{"compound": "COCCCN1CCCC1c1noc(C2CC2)n1", "stereo": "centres unmarked", "Pks13 thioesterase": -14.21, "PfKRS1": 0.2499, "LiHisRS": 10.17, "TcHisRS": 5.714}
{"compound": "O=C(NCCc1ccccc1)C1CCCN(c2ccc3nncn3n2)C1", "stereo": "centres unmarked", "Pks13 thioesterase": 3.382, "PfKRS1": 4.291, "LiHisRS": 11.43, "TcHisRS": 1.653}
{"compound": "CCN1CCN(C[C@@H]2CN(c3ncccc3F)C[C@@H]2CO)CC1", "Pks13 thioesterase": -12.52, "PfKRS1": -1.175, "LiHisRS": -1.587, "TcHisRS": -3.59}
{"compound": "Cc1n[nH]c(C)c1CCNC(=O)C1CCCN(Cc2ccco2)C1", "stereo": "centres unmarked", "Pks13 thioesterase": 8.335, "PfKRS1": -3.55, "LiHisRS": 9.402, "TcHisRS": 0}
{"compound": "Cn1cc(-c2nnn3c2COC(CNC(=O)c2cccs2)C3)cn1", "stereo": "centres unmarked", "Pks13 thioesterase": -4.712, "PfKRS1": 8.678, "LiHisRS": 4.425, "TcHisRS": 4}
{"compound": "c1ccc(CN2C[C@@H]3OCCN(CC4CCCO4)[C@@H]3C2)nc1", "stereo": "some centres unmarked", "Pks13 thioesterase": -17.79, "PfKRS1": 2.55, "LiHisRS": 12.03, "TcHisRS": 1.657}
{"compound": "CS(=O)(=O)N1CCC(Oc2ccc(C(=O)NC3CCOC3)cc2Cl)CC1", "stereo": "centres unmarked", "Pks13 thioesterase": -24.06, "PfKRS1": 2.799, "LiHisRS": 9.091, "TcHisRS": 2.116}
{"compound": "O=C1C[C@H]2[C@@H](CCN2C(=O)Cc2cccs2)N1CC1CC1", "Pks13 thioesterase": -10.86, "PfKRS1": 2.023, "LiHisRS": 3.846, "TcHisRS": 5.825}
{"compound": "CS(=O)(=O)NCc1cnc2n1CCN(Cc1ccoc1)CC2", "Pks13 thioesterase": 0.2975, "PfKRS1": -0.7201, "LiHisRS": 8.065, "TcHisRS": 0.8772}
{"compound": "OCC1CCCN1c1cc(N2CCN(c3ccccn3)CC2)ncn1", "stereo": "centres unmarked", "Pks13 thioesterase": -10.69, "PfKRS1": 7.66, "LiHisRS": 5.333, "TcHisRS": 2.642}
{"compound": "CCn1cc(NC(=O)N2CCN(C(=O)Oc3ccccc3)CC2)cn1", "Pks13 thioesterase": -9.348, "PfKRS1": 1.646, "LiHisRS": 17.24, "TcHisRS": 6.186}
{"compound": "Cc1nsc(C(=O)NCCc2ccc(S(N)(=O)=O)cc2)n1", "Pks13 thioesterase": -1.969, "PfKRS1": 4.922, "LiHisRS": 1.333, "TcHisRS": 4.762}
{"compound": "COc1cccn(CC(=O)N2CCC3(CCNCC3)C2)c1=O", "Pks13 thioesterase": -0.1844, "PfKRS1": 48.12, "LiHisRS": 116.3, "TcHisRS": 10.89}
{"compound": "COC(=O)Cc1cccc(NC(=O)Cc2cc(C)[nH]n2)c1", "Pks13 thioesterase": -32.88, "PfKRS1": 3.778, "LiHisRS": 10, "TcHisRS": 1.299}
{"compound": "O=C(C1CCOCC1)N1CCO[C@@H]2[C@@H](OCc3ccncc3)CC[C@@H]21", "Pks13 thioesterase": 12.81, "PfKRS1": 3.814, "LiHisRS": 17.95, "TcHisRS": -6.098}
{"compound": "Cc1ccccc1C(C)NC(=O)CN1CCN(Cc2ccc(Cl)s2)CC1", "stereo": "centres unmarked", "Pks13 thioesterase": -37.56, "PfKRS1": -1.182, "LiHisRS": 23.94, "TcHisRS": 8.28}

Once more, the final 2:

{"compound": "O=C(C1CCOCC1)N1CCO[C@@H]2[C@@H](OCc3ccncc3)CC[C@@H]21", "Pks13 thioesterase": 12.81, "PfKRS1": 3.814, "LiHisRS": 17.95, "TcHisRS": -6.098}
{"compound": "Cc1ccccc1C(C)NC(=O)CN1CCN(Cc2ccc(Cl)s2)CC1", "stereo": "centres unmarked", "Pks13 thioesterase": -37.56, "PfKRS1": -1.182, "LiHisRS": 23.94, "TcHisRS": 8.28}

Data taken from ChEMBL document CHEMBL3988442, “University of Dundee, Small-Polar-MMV Screening Library” (2021).